The structures given here were assigned with low confidence; some may be wrong.
Target: human SCD1 (Homo sapiens, UniProt O00767)
Assay: SCD enzyme activity assay, reconstituted human SCD1 desaturase system ([3H]-stearoyl-CoA conversion)
Details: read-out: IC50 hSCD-1
Description: The potency of compounds of formula I against the stearoyl-CoA desaturase was determined by measuring the conversion of radiolabeled stearoyl-CoA to oleoyl-CoA using rat liver microsome or human SCD1 following previously published procedures with some modifications (Joshi, et al., J. Lipid Res., 18: 32-36 (1977); Talamo, et al., Anal. Biochem, 29: 300-304 (1969)). Liver microsome was prepared from male Wistar or Sprague Dawley rats on a high carbohydrate diet for 3 days (LabDiet #5803, Purina). The livers were homogenized (1:10 w/v) in a buffer containing 250 mM sucrose, 1 mM EDTA, 5 mM DTT and 50 mM Tris-HCl (pH 7.5). After a 100,000×g centrifugation for […], the liver microsome pellet was suspended in a buffer containing 100 mM sodium phosphate, 20% glycerol, 2 mM DTT, and stored at −78° C. Human SCD1 desaturase system was reconstituted using human SCD1 from a baculovirus/Sf9 expression system, cytochrome B5 and cytochrome B5 reductase. Typically, test compound in 2 μL DMSO was incubated for […] at room temperature with 180 μL of the SCD enzyme in a buffer containing 100 mM Tris-HCl (pH 7.5), ATP (5 mM), Coenzyme-A (0.1 mM), Triton X-100 (0.5 mM) and NADH (2 mM). The reaction was initiated by the addition of 20 μL of [^3H]-stearoyl-CoA (final concentration=2 μM, radioactivity concentration=1 μCi/mL). After 10 min, the reaction mixture (80 μL) was mixed with a calcium chloride/charcoal aqueous suspension (100 μL charcoal (10% w/v) plus 25 μL CaCl2 (2N). After centrifugation to precipitate the radioactive fatty acid species, tritiated water released from 9,10-[^3H]-stearoyl-CoA by the SCD enzyme was quantified on a scintillation counter.

By UniProt entry, the sequences of proteins in these tests, tags left out.
UniProt O00767, whole entry: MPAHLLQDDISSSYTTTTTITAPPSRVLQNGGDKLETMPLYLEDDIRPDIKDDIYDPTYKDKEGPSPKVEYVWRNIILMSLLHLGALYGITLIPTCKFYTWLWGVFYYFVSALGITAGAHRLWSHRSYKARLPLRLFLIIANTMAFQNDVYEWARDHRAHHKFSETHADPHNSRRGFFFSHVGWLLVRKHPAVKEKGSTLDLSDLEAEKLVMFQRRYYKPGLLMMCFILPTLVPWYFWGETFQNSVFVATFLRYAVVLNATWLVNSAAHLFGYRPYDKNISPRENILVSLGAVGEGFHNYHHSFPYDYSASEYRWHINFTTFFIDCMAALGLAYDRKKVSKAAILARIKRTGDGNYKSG

Structure (SMILES)	IC50
O=C(O)Cn1nnc(-c2cnc(N3CCC4(C=C(c5ccc(Cl)cc5Cl)c5ccccc5O4)CC3)s2)n1	1 nM
O=C(O)Cn1nnc(-c2cnc(N3CCC4(C=C(c5ccc(Cl)cc5Cl)c5c(Cl)cccc5O4)CC3)s2)n1	0.4 nM
O=C(O)Cn1nnc(-c2cnc(N3CCC4(C=C(c5c(Cl)cccc5Cl)c5ccccc5O4)CC3)s2)n1	1.3 nM
O=C(O)Cn1nnc(-c2cnc(N3CCC4(C=C(c5cc(Cl)ccc5Cl)c5ccccc5O4)CC3)s2)n1	1.4 nM
O=C(O)Cn1nnc(-c2nnc(N3CCC4(C=C(c5ccc(Cl)cc5Cl)c5ccccc5O4)CC3)s2)n1	1.4 nM
O=C(O)Cn1nnc(-c2cnc(N3CCC4(C=C(c5cc(Cl)ccc5Cl)c5c(Cl)cccc5O4)CC3)s2)n1	1.3 nM

Source: patent publication US8383643B2, “Spiro compounds useful as inhibitors of stearoyl-coenzyme A delta-9 desaturase” (Merck Canada Inc., priority 2009, dated 2013)
